# According to the supplement of paper PMC8728848:
# This is one part of the list.
# B1: a L Fucosidase (Thermotoga maritima) (protein)
# chain: MASMKPRYKPDWESLREHTVPKWFDKAKFGIFIHWGIYSVPGWATPTGELGKVPMDAWFFQNPYAEWYENSLRIKESPTWEYHVKTYGENFEYEKFADLFTAEKWDPQEWADLFKKAGAKYVIPTTKHHDGFCLWGTKYTDFNSVKRGPKRDLVGDLAKAVREAGLRFGVYYSGGLDWRFTTEPIRYPEDLSYIRPNTYEYADYAYKQVMELVDLYLPDVLWNNMGWPEKGKEDLKYLFAYYYNKHPEGSVNDRWGVPHWDFKTAEYHVNYPGDLPGYKWEFTRGIGLSFGYNRNEGPEHMLSVEQLVYTLVDVVSKGGNLLLNVGPKGDGTIPDLQKERLLGLGEWLRKYGDAIYGTSVWERCCAKTEDGTEIRFTRKCNRIFVIFLGIPTGEKIVIEDLNLSAGTVRHFLTGERLSFKNVGKNLEITVPKKLLETDSITLVLEAVEE
# Legend:
# Test in all cases: glycan array binding signal (z-score within array); higher = stronger binding
# Conditions in all cases: glycan notation: IUPAC condensed, linker removed; mutation: D224N
# GalNAc(b1-4)GlcNAc = molecular target: GalNAc(b1-4)GlcNAc
# Procedure, shortened: (§1)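 Glycan array data were curated from 3228 arrays in the Consortium for Functional Glycomics database and kept only where the protein sequence was available. Glycan names were converted to IUPAC-condensed notation, and columns mapping to the same glycan were averaged. The binding signal is a within-array Z-score, averaged across arrays of the same protein sequence at different concentrations or buffers and across linkers. Negative Z-scores can be read as non-binding.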
# [1] = molecular target: GalNAc(b1-4)GlcNAc(b1-2)Man
# Procedure, shortened: as §1
# [2] = molecular target: GalNAc(b1-4)GlcNAc(b1-2)Man(a1-3)[GalNAc(b1-4)GlcNAc(b1-2)Man(a1-6)]Man(b1-4)GlcNAc(b1-4)GlcNAc
# Procedure, shortened: as §1
# [3] = molecular target: GalNAc(b1-4)GlcNAc(b1-3)GalNAc(b1-4)GlcNAc
# Procedure, shortened: as §1
# GalNAc(b1-4)GlcNAc6S = molecular target: GalNAc(b1-4)GlcNAc6S
# Procedure, shortened: as §1
# GalNAc(b1-6)GalNAc = molecular target: GalNAc(b1-6)GalNAc
# Procedure, shortened: as §1
# GalNAc3S(b1-4)GlcNAc = molecular target: GalNAc3S(b1-4)GlcNAc
# Procedure, shortened: as §1
# GalNAc3S(b1-4)GlcNAc3S = molecular target: GalNAc3S(b1-4)GlcNAc3S
# Procedure, shortened: as §1
# [4] = molecular target: GalNAc3S(b1-4)[Fuc(a1-3)]GlcNAc
# Procedure, shortened: as §1
# GalNAc4S6S(b1-4)GlcNAc = molecular target: GalNAc4S6S(b1-4)GlcNAc
# Procedure, shortened: as §1
# GalNAc6S(b1-4)GlcNAc = molecular target: GalNAc6S(b1-4)GlcNAc
# Procedure, shortened: as §1
# Glc(a1-4)Glc = molecular target: Glc(a1-4)Glc
# Procedure, shortened: as §1
# [5] = molecular target: Glc(a1-4)Glc(a1-4)Glc(a1-4)Glc
# Procedure, shortened: as §1
# Glc(a1-6)Glc(a1-6)Glc = molecular target: Glc(a1-6)Glc(a1-6)Glc
# Procedure, shortened: as §1
# [6] = molecular target: Glc(a1-6)Glc(a1-6)Glc(a1-6)Glc
# Procedure, shortened: as §1
# Glc(b1-4)Glc = molecular target: Glc(b1-4)Glc
# Procedure, shortened: as §1
# Glc(b1-6)Glc = molecular target: Glc(b1-6)Glc
# Procedure, shortened: as §1
# GlcA(b1-3)Gal = molecular target: GlcA(b1-3)Gal
# Procedure, shortened: as §1
# GlcA(b1-3)GlcNAc = molecular target: GlcA(b1-3)GlcNAc
# Procedure, shortened: as §1
# GlcA(b1-6)Gal = molecular target: GlcA(b1-6)Gal
# Procedure, shortened: as §1
# [7] = molecular target: GlcA3S(b1-3)Gal(b1-4)GlcNAc(b1-2)Man
# Procedure, shortened: as §1
# [8] = molecular target: GlcA3S(b1-3)Gal(b1-4)GlcNAc(b1-3)Gal(b1-4)Glc
# Procedure, shortened: as §1
# [9] = molecular target: GlcNAc(a1-3)Gal(b1-4)GlcNAc
# Procedure, shortened: as §1
# [10] = molecular target: GlcNAc(a1-4)Gal(b1-3)GlcNAc
# Procedure, shortened: as §1
# [11] = molecular target: GlcNAc(a1-4)Gal(b1-4)GalNAc
# Procedure, shortened: as §1
# [12] = molecular target: GlcNAc(a1-4)Gal(b1-4)GlcNAc
# Procedure, shortened: as §1
# [13] = molecular target: GlcNAc(a1-4)Gal(b1-4)GlcNAc(b1-3)Gal(b1-4)Glc
# Procedure, shortened: as §1
# [14] = molecular target: GlcNAc(a1-4)Gal(b1-4)GlcNAc(b1-3)Gal(b1-4)GlcNAc
# Procedure, shortened: as §1
# [15] = molecular target: GlcNAc(a1-4)Gal(b1-4)GlcNAc(b1-3)Gal(b1-4)GlcNAc(b1-3)Gal(b1-4)GlcNAc
# Procedure, shortened: as §1
# [16] = molecular target: GlcNAc(a1-4)Gal(b1-4)GlcNAc(b1-3)Gal(b1-4)[Fuc(a1-3)]GlcNAc(b1-3)Gal(b1-4)[Fuc(a1-3)]GlcNAc
# Procedure, shortened: as §1
# [17] = molecular target: GlcNAc(a1-6)Gal(b1-4)GlcNAc
# Procedure, shortened: as §1
# [18] = molecular target: GlcNAc(b1-2)Gal(b1-3)GalNAc
# Procedure, shortened: as §1
# [19] = molecular target: GlcNAc(b1-2)Man(a1-3)[GlcNAc(b1-2)Man(a1-6)]Man(b1-4)GlcNAc(b1-4)GlcNAc
# Procedure, shortened: as §1
# [20] = molecular target: GlcNAc(b1-2)Man(a1-3)[GlcNAc(b1-2)Man(a1-6)]Man(b1-4)GlcNAc(b1-4)[Fuc(a1-6)]GlcNAc
# Procedure, shortened: as §1
# [21] = molecular target: GlcNAc(b1-2)Man(a1-3)[GlcNAc(b1-4)][GlcNAc(b1-2)Man(a1-6)]Man(b1-4)GlcNAc(b1-4)GlcNAc
# Procedure, shortened: as §1
# [22] = molecular target: GlcNAc(b1-2)Man(a1-3)[GlcNAc(b1-4)][GlcNAc(b1-2)Man(a1-6)]Man(b1-4)GlcNAc(b1-4)[Fuc(a1-6)]GlcNAc
# Procedure, shortened: as §1
# [23] = molecular target: GlcNAc(b1-2)[GlcNAc(b1-4)]Man(a1-3)[GlcNAc(b1-2)Man(a1-6)]Man(b1-4)GlcNAc(b1-4)GlcNAc
# Procedure, shortened: as §1
# [24] = molecular target: GlcNAc(b1-2)[GlcNAc(b1-4)]Man(a1-3)[GlcNAc(b1-4)][GlcNAc(b1-2)Man(a1-6)]Man(b1-4)GlcNAc(b1-4)GlcNAc
# Procedure, shortened: as §1
# [25] = molecular target: GlcNAc(b1-2)[GlcNAc(b1-4)]Man(a1-3)[GlcNAc(b1-4)][GlcNAc(b1-2)[GlcNAc(b1-6)]Man(a1-6)]Man(b1-4)GlcNAc(b1-4)GlcNAc
# Procedure, shortened: as §1
# [26] = molecular target: GlcNAc(b1-2)[GlcNAc(b1-4)]Man(a1-3)[GlcNAc(b1-4)][GlcNAc(b1-2)[GlcNAc(b1-6)]Man(a1-6)]Man(b1-4)GlcNAc(b1-4)[Fuc(a1-6)]GlcNAc
# Procedure, shortened: as §1
# [27] = molecular target: GlcNAc(b1-2)[GlcNAc(b1-6)]Man(a1-6)[GlcNAc(b1-2)Man(a1-3)]Man(b1-4)GlcNAc(b1-4)GlcNAc
# Procedure, shortened: as §1
# [28] = molecular target: GlcNAc(b1-2)[GlcNAc(b1-6)]Man(a1-6)[GlcNAc(b1-2)Man(a1-3)]Man(b1-4)GlcNAc(b1-4)[Fuc(a1-6)]GlcNAc
# Procedure, shortened: as §1
# [29] = molecular target: GlcNAc(b1-2)[GlcNAc(b1-6)]Man(a1-6)[GlcNAc(b1-4)][GlcNAc(b1-2)Man(a1-3)]Man(b1-4)GlcNAc(b1-4)GlcNAc
# Procedure, shortened: as §1
# GlcNAc(b1-3)Fuc = molecular target: GlcNAc(b1-3)Fuc
# Procedure, shortened: as §1
# GlcNAc(b1-3)Gal = molecular target: GlcNAc(b1-3)Gal
# Procedure, shortened: as §1
binder,measurement,setting,value
B1,glycan array binding signal (z-score),GalNAc(b1-4)GlcNAc,0.218
same,glycan array binding signal (z-score),[1],-0.3
same,glycan array binding signal (z-score),[2],0.132
same,glycan array binding signal (z-score),[3],0.076
same,glycan array binding signal (z-score),GalNAc(b1-4)GlcNAc6S,-0.397
same,glycan array binding signal (z-score),GalNAc(b1-6)GalNAc,-0.458
same,glycan array binding signal (z-score),GalNAc3S(b1-4)GlcNAc,1.27
same,glycan array binding signal (z-score),GalNAc3S(b1-4)GlcNAc3S,0.136
same,glycan array binding signal (z-score),[4],-0.654
same,glycan array binding signal (z-score),GalNAc4S6S(b1-4)GlcNAc,0.986
same,glycan array binding signal (z-score),GalNAc6S(b1-4)GlcNAc,-0.231
same,glycan array binding signal (z-score),Glc(a1-4)Glc,-0.171
same,glycan array binding signal (z-score),[5],2.84
same,glycan array binding signal (z-score),Glc(a1-6)Glc(a1-6)Glc,-0.155
same,glycan array binding signal (z-score),[6],0.142
same,glycan array binding signal (z-score),Glc(b1-4)Glc,-0.613
same,glycan array binding signal (z-score),Glc(b1-6)Glc,-0.699
same,glycan array binding signal (z-score),GlcA(b1-3)Gal,-0.68
same,glycan array binding signal (z-score),GlcA(b1-3)GlcNAc,0.573
same,glycan array binding signal (z-score),GlcA(b1-6)Gal,-0.047
same,glycan array binding signal (z-score),[7],-0.236
same,glycan array binding signal (z-score),[8],-0.677
same,glycan array binding signal (z-score),[9],-0.247
same,glycan array binding signal (z-score),[10],-0.713
same,glycan array binding signal (z-score),[11],0.151
same,glycan array binding signal (z-score),[12],-0.293
same,glycan array binding signal (z-score),[13],-1.1
same,glycan array binding signal (z-score),[14],0.042
same,glycan array binding signal (z-score),[15],0.079
same,glycan array binding signal (z-score),[16],0.08
same,glycan array binding signal (z-score),[17],-0.871
same,glycan array binding signal (z-score),[18],0.179
same,glycan array binding signal (z-score),[19],-0.295
same,glycan array binding signal (z-score),[20],0.433
same,glycan array binding signal (z-score),[21],0.937
same,glycan array binding signal (z-score),[22],0.291
same,glycan array binding signal (z-score),[23],-0.603
same,glycan array binding signal (z-score),[24],-0.01
same,glycan array binding signal (z-score),[25],-0.084
same,glycan array binding signal (z-score),[26],-0.522
same,glycan array binding signal (z-score),[27],-0.079
same,glycan array binding signal (z-score),[28],-0.472
same,glycan array binding signal (z-score),[29],-0.18
same,glycan array binding signal (z-score),GlcNAc(b1-3)Fuc,-0.333
same,glycan array binding signal (z-score),GlcNAc(b1-3)Gal,-0.908

# Part of the list above, with bars between the fields.
binder | measurement | setting | value
B1 | glycan array binding signal (z-score) | GalNAc3S(b1-4)GlcNAc | 1.27
same | glycan array binding signal (z-score) | GalNAc3S(b1-4)GlcNAc3S | 0.136
same | glycan array binding signal (z-score) | [4] | -0.654
